Data from article PMC8027484.
These are yes or no findings as the source states them, for the method shown. In cells and extracts the contact can be indirect. Some results given as binding are weak or reduced against the parent protein; the word gives no strength. Where a sequence is shown, tags or fusion partners need not be part of it.

Sequences of proteins named here, by UniProt entry; tags and fusion partners are left off.
UniProt P55060: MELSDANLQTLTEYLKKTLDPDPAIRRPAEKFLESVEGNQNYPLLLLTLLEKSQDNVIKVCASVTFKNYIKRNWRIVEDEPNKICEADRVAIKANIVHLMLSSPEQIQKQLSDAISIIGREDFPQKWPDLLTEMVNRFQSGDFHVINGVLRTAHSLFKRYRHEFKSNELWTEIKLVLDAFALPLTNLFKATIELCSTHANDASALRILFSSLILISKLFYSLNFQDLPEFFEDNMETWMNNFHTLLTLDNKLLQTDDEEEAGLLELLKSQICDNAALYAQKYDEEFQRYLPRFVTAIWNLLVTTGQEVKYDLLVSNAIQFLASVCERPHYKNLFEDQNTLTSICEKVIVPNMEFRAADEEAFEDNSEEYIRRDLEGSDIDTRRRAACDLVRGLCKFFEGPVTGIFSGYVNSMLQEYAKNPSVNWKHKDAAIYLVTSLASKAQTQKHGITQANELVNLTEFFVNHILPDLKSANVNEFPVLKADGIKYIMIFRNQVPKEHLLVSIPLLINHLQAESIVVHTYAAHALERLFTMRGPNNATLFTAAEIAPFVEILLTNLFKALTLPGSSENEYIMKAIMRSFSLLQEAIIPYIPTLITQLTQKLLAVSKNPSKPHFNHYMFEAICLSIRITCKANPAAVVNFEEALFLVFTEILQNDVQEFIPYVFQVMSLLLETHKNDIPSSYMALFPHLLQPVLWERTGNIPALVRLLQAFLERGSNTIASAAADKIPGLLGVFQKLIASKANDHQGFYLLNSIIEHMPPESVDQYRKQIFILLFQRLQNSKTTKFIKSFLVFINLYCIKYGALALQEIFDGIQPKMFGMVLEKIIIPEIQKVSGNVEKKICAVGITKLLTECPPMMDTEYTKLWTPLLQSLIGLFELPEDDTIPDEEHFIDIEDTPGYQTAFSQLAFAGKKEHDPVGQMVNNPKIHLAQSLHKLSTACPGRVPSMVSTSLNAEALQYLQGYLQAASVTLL

Target: T1, 3×Flag-tagged-FLVCR1 (feline leukemia virus subgroup C receptor 1) (UniProt Q9Y5Y0)
T1 sequence: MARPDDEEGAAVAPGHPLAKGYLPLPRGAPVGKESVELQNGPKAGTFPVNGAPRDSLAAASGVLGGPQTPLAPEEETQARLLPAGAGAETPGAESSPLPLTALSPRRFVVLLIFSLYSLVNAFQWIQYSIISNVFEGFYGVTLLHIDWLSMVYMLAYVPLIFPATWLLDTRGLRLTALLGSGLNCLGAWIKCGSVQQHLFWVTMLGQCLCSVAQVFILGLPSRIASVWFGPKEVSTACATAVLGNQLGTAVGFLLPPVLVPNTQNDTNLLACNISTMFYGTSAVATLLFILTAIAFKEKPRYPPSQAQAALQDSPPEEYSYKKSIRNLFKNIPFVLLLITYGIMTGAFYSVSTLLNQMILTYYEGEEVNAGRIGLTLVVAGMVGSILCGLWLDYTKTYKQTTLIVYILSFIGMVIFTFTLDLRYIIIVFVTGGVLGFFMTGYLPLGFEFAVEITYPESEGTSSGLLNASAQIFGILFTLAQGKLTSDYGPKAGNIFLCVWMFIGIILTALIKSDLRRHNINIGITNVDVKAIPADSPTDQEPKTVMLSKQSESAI
Assay: co-IP; KYSE-150 cells stably expressing 3×FLAG-FLVCR1; immunoprecipitation lysis buffer, anti-FLAG beads, western blot

- binding: binds
Substance: chromosome segregation 1–like (CSE1L) (from UniProt P55060 1-971)
